PubChem BioAssay AID1259275 | Sanger Institute | 2017

Assay: 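Knock-downs that cut viability on their own or combined with BYL719, cetuximab or trametinib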 (primary screen)
System: COLO320HSR human colorectal cancer cells
Knock-down reagent: siRNA pool against human genes
Conditions: anchor drug added one day after transfection: BYL719 at 1 µM, cetuximab at 5 µg/ml or trametinib at 10 nM; DMSO as vehicle arm
Measured: 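Viability averaged over replicates as a fraction of the non-targeting pool, a robust z-score for knock-down alone, and synergy scores with BYL719 (1 µM), cetuximab (5 µg/ml) or trametinib (10 nM)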
Scale: robust z-score, siRNA alone: higher = more viable cells; strongly negative means essential; viability, knock-down alone (DMSO): higher = more viable cells
Rule for the call: 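Essential means the knock-down by itself gives a robust z-score lower than -3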
Calls: active = essential (siRNA alone); inactive = no change (siRNA alone)
Shown is an unselected part of 794 deposited reagents. 13 of all reagents (1.6%) were called active. 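Calls mark knock-downs lethal by themselves, not drug synergy; drugs went in a day after transfection, with DMSO as vehicle.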 No viability above 1 is reported: the scale is capped. Further read-outs or replicates are left out here. No sequences are given here. Not stated in the record: the amount of reagent, the time to read-out.

PANK2 showed robust z-score, siRNA alone 0.373; viability, knock-down alone (DMSO) (fraction of control) = 0.968; inactive. For PRKAA1 the deposit lists robust z-score, siRNA alone -0.356; viability, knock-down alone (DMSO) (fraction of control) = 0.902; inactive. Against CKS1B the deposit lists robust z-score, siRNA alone 0.429; viability, knock-down alone (DMSO) (fraction of control) = 0.973; inactive. STK39 scored robust z-score, siRNA alone -2; viability, knock-down alone (DMSO) (fraction of control) = 0.754; inactive. Depletion of DAPK1 gave: robust z-score, siRNA alone 0.726; viability, knock-down alone (DMSO) (fraction of control) = 1; inactive. After knock-down of SMAD2, the screen gave robust z-score, siRNA alone -0.161; viability, knock-down alone (DMSO) (fraction of control) = 0.92; inactive.

CSNK1G3 gave robust z-score, siRNA alone 0.726; viability, knock-down alone (DMSO) (fraction of control) = 1; inactive. ACSL6 gave robust z-score, siRNA alone 0.305; viability, knock-down alone (DMSO) (fraction of control) = 0.962; inactive. Against STK32C the deposit lists robust z-score, siRNA alone 0.726; viability, knock-down alone (DMSO) (fraction of control) = 1; inactive. ALPK3 showed robust z-score, siRNA alone 0.294; viability, knock-down alone (DMSO) (fraction of control) = 0.961; inactive. Depletion of GALK2 came out at: robust z-score, siRNA alone 0.726; viability, knock-down alone (DMSO) (fraction of control) = 1; inactive. For CDK2 the deposit lists robust z-score, siRNA alone 0.726; viability, knock-down alone (DMSO) (fraction of control) = 1; inactive.

An excerpt from the list above, as a working copy:
CSNK1G3: robust z-score, siRNA alone = 0.726; viability, knock-down alone (DMSO) (fraction of control) = 1; activity call = inactive
ACSL6: robust z-score, siRNA alone = 0.305; viability, knock-down alone (DMSO) (fraction of control) = 0.962; activity call = inactive
